Test results reported in the supplement of paper PMC12823440, “Inhibitors supercharge kinase turnover through native proteolytic circuits” (Nature, 2025).
Where a name gives a salt, the structure may show the parent alone. Some of the results follow. The calls rarely recur for the same compound in another form.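 In K562 cells expressing nanoluciferase-fused kinases, luminescence was recorded at 4 h intervals between 2 and 18 h, normalized as percent of control with DMSO at 100% and a positive control at 0%. A significant (2 sigma) signal drop marks a time point as decreased. The authors' rule for a hit is not shown and takes in more than the number of time points.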

Protein sequences, listed by entry. Tags and fused reporters are not part of them.
UniProt P53350, whole entry: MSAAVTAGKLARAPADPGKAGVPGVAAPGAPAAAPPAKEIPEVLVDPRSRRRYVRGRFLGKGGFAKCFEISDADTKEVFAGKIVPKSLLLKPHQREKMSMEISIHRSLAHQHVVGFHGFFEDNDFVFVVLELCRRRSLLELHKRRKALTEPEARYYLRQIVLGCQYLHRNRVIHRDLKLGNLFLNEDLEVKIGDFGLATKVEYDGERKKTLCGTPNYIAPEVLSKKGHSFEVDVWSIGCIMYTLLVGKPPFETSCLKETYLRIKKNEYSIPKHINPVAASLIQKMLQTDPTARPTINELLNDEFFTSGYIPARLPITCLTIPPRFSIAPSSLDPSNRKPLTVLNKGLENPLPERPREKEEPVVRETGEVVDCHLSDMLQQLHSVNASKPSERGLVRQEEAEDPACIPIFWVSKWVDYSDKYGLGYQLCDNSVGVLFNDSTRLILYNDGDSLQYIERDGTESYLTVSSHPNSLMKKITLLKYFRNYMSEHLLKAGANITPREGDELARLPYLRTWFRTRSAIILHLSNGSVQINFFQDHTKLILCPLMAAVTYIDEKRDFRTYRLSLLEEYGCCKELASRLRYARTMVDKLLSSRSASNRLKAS

Biological target: PLK1 (UniProt P53350)
Assay: kinase-Nluc reporter destabilization hit call (1 = scored as downregulated) (binary); higher = compound decreases kinase abundance
Details: K562; 2-18 h

kinase-Nluc reporter destabilization hit call, inactive:
O=C(CSC1=NCCN1)NC1CCCCCC1 [ICCB-19 (hydrochloride)] (2.5 µM) 0
CCCS(=O)(=O)Nc1ccc(F)c(C(=O)c2c[nH]c3ncc(-c4ccc(Cl)cc4)cc23)c1F [Vemurafenib] (10 µM) 0
Cc1ccc(OCCSc2ncccn2)c(Br)c1 [ZLN024 (hydrochloride)] (10 µM) 0
Nc1ncnc2c1c(-c1ccc(Oc3ccccc3)cc1)nn2C1CCCC1 (2.5 µM) 0
COc1ncc(Cl)cc1S(=O)(=O)Nc1ccc(F)c(C#Cc2cnc(N)nc2)c1F (2.5 µM) 0
Cc1ccc(CNc2ncnc3ccc(-c4ccc(CO)o4)cc23)o1 (10 µM) 0
NC(=O)c1nnc(N[C@@H]2CCCC[C@@H]2N)nc1Nc1cccc2cc[nH]c12 (10 µM) 0
CNc1nc(Nc2ccc(C(=O)N3CCOCC3)cc2OC)nc2[nH]cc(Cl)c12 (2.5 µM) 0
CCNc1nc(Nc2cc(F)c(C(=O)N3CCOCC3)cc2OC)ncc1C(F)(F)F [GNE-7915 (tosylate)] (10 µM) 0
CCN1CCN(Cc2ccc(Nc3ncc(F)c(-c4cc(F)c5nc(C)n(C(C)C)c5c4)n3)nc2)CC1 [Abemaciclib] (2 µM) 0
COCCNc1nc2ccc(C#CC3(O)CCCCC3)cc2n1-c1ccnc(N)n1 (10 µM) 0
OCCn1cc(-c2ccc3c(c2)CC/C3=N\O)c(-c2ccncc2)n1 (10 µM) 0
O=C1N[C@@H](Cc2c[nH]c3ccccc23)C(=O)N2CCC[C@@H]12 [Brevianamide F] (10 µM) 0
Cn1nccc1Nc1nccc(-c2ccn([C@H](CO)c3ccc(Cl)c(F)c3)c(=O)c2)n1 [Ravoxertinib] (10 µM) 0
O=C(NCCN1CCOCC1)c1cc2c(Oc3ccc(NC(=O)C4(C(=O)Nc5ccc(F)cc5)CC4)cc3)ccnc2[nH]1 [Tyrosine kinase inhibitor] (10 µM) 0
COc1cc2c(N3CCN(C(=O)Nc4ccc(OC(C)C)cc4)CC3)ncnc2cc1OCCCN1CCCCC1 [Tandutinib (hydrochloride)] (10 µM) 0
COc1cc(/C=C/C(=O)NCC(O)c2ccc(O)cc2)ccc1O (stereo not drawn) [N-Feruloyloctopamine] (2.5 µM) 0
COc1cc2nccc(Oc3ccc(NC(=O)NC4CC4)c(Cl)c3)c2cc1C(N)=O [Lenvatinib (mesylate)] (10 µM) 0
CN1CCN(c2cccc(Nc3nc4c(-c5ccc(S(C)(=O)=O)cc5)cccn4n3)c2)CC1 (10 µM) 0
C=C(CC[C@@H](C(=O)O)[C@H]1[C@H](O)C[C@@]2(C)C3=C(CC[C@]12C)[C@@]1(C)CC[C@H](OC(C)=O)C(C)(C)[C@@H]1CC3)C(C)C [Pachymic acid] (10 µM) 0
O=c1[nH]c(=O)n([C@@H]2O[C@H](CO)[C@@H](O)[C@@H]2O)cc1/C=C/Br [Sorivudine] (10 µM) 0
NC(=O)c1ccc(-c2nc(-c3ccc4c(c3)OCCO4)c(-c3ccccn3)[nH]2)cc1 (10 µM) 0
CC#CC(=O)Nc1ccc2ncnc(Nc3cccc(Br)c3)c2c1 (10 µM) 0
CCc1c(C(=O)NNC(=O)C(O)c2cc(F)cc(F)c2)ccc(O)c1C (stereo not drawn) (10 µM) 0
CC(=O)c1c(C)cc2cccc(O)c2c1O [Nepodin] (10 µM) 0
Cc1c(-c2c(F)cc(C(N)=O)c3[nH]c4c(c23)CC[C@H](C(C)(C)O)C4)cccc1-n1c(=O)c2cccc(F)c2n(C)c1=O (2.5 µM) 0
CCc1cc2c(cc1N1CCC(N3CCOCC3)CC1)C(C)(C)c1[nH]c3cc(C#N)ccc3c1C2=O [Alectinib] (10 µM) 0
FC(F)c1nc2ccccc2n1-c1nc(N2CCOCC2)nc(N2CCOCC2)n1 (2 µM) 0
FC(F)(c1ccc2ncccc2c1)c1nnc2ccc(-c3ccncc3)nn12 (10 µM) 0
Cn1cc(-c2cnn3c(N)c(Br)c([C@@H]4CCCNC4)nc23)cn1 (2.5 µM) 0
C[C@@H]1COCCN1c1cc(C2([S@@](C)(=N)=O)CC2)nc(-c2ccnc3[nH]ccc23)n1 [(S)-Ceralasertib] (10 µM) 0
CC#CC(=O)N1CC[C@@H](n2c(=O)n(-c3ccc(Oc4ccccc4)cc3)c3c(N)ncnc32)C1 [Tirabrutinib] (10 µM) 0
C[C@@]1(c2ncncc2F)NC(=O)c2cc(-c3cn[nH]c3)ccc21 (10 µM) 0
COc1ccc(Cl)c(Nc2nc3ccccc3nc2NS(=O)(=O)c2cccc(NC(=O)C(C)(C)N)c2)c1 [Pilaralisib] (10 µM) 0
O=Nc1c(-c2c(O)[nH]c3ccc(I)cc23)[nH]c2ccccc12 [5-Iodo-indirubin-3'-monoxime] (10 µM) 0
COc1cc2nccc(Oc3ccc(NC(=O)NC4CC4)c(Cl)c3)c2cc1C(N)=O [Lenvatinib] (10 µM) 0
C[C@]1(O)CCN(c2nc(N3C[C@H](O)[C@@H](O)C3)cc(C(F)(F)F)c2C#N)C1 (10 µM) 0
Cn1cnc(Cn2ccc3ccc(CNCc4[nH]c5ccccc5c4[C@H]4NC(=O)c5ccc(O)cc54)cc32)c1 (10 µM) 0

2 entries picked at random from the list so far, as already listed:
kinase-Nluc reporter destabilization hit call, inactive:
C=C(CC[C@@H](C(=O)O)[C@H]1[C@H](O)C[C@@]2(C)C3=C(CC[C@]12C)[C@@]1(C)CC[C@H](OC(C)=O)C(C)(C)[C@@H]1CC3)C(C)C [Pachymic acid] (10 µM) 0
COc1cc2c(N3CCN(C(=O)Nc4ccc(OC(C)C)cc4)CC3)ncnc2cc1OCCCN1CCCCC1 [Tandutinib (hydrochloride)] (10 µM) 0
